Laboratory results as given in publication PMC8767186.
No constants are given. Whether binding was seen depends on the method and setting. Binding seen in cells or lysates may run through a third protein. Some binding calls cover weakened binding; strength is not graded here. Tags and fused reporters may be left off the sequences shown. Each block holds one binder with its values, some of them ahead of it.

Tests used:
[1] = target: T1, Spc105^455::GFP (FL) (S. cerevisiae) (UniProt P53148); assay: co-IP; GFP-Trap beads (Chromotek) on cleared yeast lysates in buffer H 0.15 (25 mM HEPES pH 8.0, 150 mM KCl, 0.1% IGEPAL), overnight; blots with anti-GFP and anti-Flag
T1 sequence: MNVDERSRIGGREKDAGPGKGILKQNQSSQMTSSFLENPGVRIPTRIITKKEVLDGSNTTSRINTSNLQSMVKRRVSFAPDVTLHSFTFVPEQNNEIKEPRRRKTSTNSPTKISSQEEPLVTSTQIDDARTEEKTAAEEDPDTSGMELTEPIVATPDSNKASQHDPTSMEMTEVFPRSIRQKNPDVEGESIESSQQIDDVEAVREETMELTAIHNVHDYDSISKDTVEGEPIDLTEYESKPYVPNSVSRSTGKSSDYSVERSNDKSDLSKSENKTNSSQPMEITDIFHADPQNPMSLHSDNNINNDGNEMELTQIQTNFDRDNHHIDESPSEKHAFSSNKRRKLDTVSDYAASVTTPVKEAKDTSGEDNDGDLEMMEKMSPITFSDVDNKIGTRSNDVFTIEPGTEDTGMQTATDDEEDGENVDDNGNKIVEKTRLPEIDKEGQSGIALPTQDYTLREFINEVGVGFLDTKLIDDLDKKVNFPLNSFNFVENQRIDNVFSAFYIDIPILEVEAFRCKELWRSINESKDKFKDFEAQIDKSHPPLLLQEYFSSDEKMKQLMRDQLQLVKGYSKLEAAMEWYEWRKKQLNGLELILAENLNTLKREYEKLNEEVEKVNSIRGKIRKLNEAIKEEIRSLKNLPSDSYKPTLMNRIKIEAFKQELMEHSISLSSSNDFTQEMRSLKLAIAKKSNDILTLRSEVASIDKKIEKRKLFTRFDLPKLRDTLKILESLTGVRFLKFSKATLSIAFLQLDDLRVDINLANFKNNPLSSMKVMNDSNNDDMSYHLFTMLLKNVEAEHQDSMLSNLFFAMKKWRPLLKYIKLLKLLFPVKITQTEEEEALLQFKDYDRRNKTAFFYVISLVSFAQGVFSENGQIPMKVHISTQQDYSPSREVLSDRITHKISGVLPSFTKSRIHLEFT

[2] = target: T2, spc105^Δ313–638::GFP (S. cerevisiae) (UniProt P53148); assay: as above
T2 sequence: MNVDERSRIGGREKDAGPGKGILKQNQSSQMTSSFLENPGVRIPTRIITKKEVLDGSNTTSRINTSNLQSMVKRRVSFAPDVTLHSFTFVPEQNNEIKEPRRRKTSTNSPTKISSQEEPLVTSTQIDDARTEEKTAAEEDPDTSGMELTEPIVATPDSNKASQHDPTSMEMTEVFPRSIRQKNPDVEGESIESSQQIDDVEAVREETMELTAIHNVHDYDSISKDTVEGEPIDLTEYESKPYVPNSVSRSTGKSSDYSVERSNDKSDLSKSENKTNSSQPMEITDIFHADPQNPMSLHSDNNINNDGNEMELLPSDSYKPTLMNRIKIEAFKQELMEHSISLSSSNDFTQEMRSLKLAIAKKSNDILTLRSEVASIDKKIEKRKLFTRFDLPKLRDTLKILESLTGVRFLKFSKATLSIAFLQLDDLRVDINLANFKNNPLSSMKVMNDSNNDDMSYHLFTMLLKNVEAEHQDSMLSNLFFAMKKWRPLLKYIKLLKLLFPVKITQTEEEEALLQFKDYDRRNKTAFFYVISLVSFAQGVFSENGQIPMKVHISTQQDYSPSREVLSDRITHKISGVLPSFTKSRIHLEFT

[3] = target: T3, Spc105-mCherry (S. cerevisiae) (UniProt P53148); assay: co-IP; RFP-Trap beads (Chromotek) on cleared yeast lysates in buffer H 0.15 (25 mM HEPES pH 8.0, 150 mM KCl, 0.1% IGEPAL), overnight; blots with anti-GFP and anti-DsRed; band intensities by ImageJ, normalised to full length, input and Spc105 IP
T3 sequence: T1 sequence

- binding [1]: binds
- binding [2]: no binding
B1: Kre28-5xFlag (protein, UniProt Q04431 1-385)
chain: MDTGSASIKDYETVLTDIEDSIAVSSEEVLNNQELRLKNTLHEITSSILAINEENKFVNPLRNDESLDVEGKEVFVNPKILSAKIKEFNKLMELLKLTYLEQETLDYFFRFTLSSTKPLQLDSEKDPQFVKLNERVNDLKEEISNVQESKIEQIKAEIQETGHNFAERQDLINELYLEATGDIENCWDSLNELKNLTNKEDKNMMGEKDTILNSSDSDDFVEETYTNWQKLLFLQKQNQRLTKELKEMHEVKNQIIRKGEQSKKEDSGHLMANESELCQSINLLTKFWEKHFLLKGSKTTILNFEIFTQLGKVQFEIKDMQYIIAISLSDLKRPMIKDITILQKAGGNIVTDIEASSKFNNKYRNNTKVQIFEVMDDIISELTNE

- binding [3]: binds
B2: GFP-Kre28^FL (protein, UniProt Q04431 1-385)
chain: B1 chain
